According to publication PMC11157767 (Molecular Cancer, 2024):
This continues a long series; more values of the same kind are listed elsewhere.

System: TFG-MET allograft tumors
Experiment: RNA-sequencing, differential expression and GSEA of TFG-MET allograft tumors
Assay type: in vivo, mouse
Description: Error bars display standard error of mean, statistical significance was determined using t-test analysis. (****;p<0.0001, ***;p<0.001, **;p<0.01, *;p<0.05). […] Each dot represents an individual replicate. Error bars display standard error of the mean.
Each dot represents one gene.

[1] = GOCC_STEREOCILIUM_TIP, CAP.v.Veh
[2] = GOCC_STRIATED_MUSCLE_THIN_FILAMENT, CAP.v.Veh
[3] = GOCC_SUPRAMOLECULAR_POLYMER, CAP.v.Veh
[4] = GOCC_SWI_SNF_COMPLEX, CAP.v.Veh
[5] = GOCC_SYNAPTONEMAL_STRUCTURE, CAP.v.Veh
[6] = GOCC_TRANSCRIPTIONALLY_ACTIVE_CHROMATIN, CAP.v.Veh
[7] = GOCC_TRANSPORTER_COMPLEX, CAP.v.Veh
[8] = GOCC_TRANSPORT_VESICLE, CAP.v.Veh
[9] = GOCC_TRANSPORT_VESICLE_MEMBRANE, CAP.v.Veh
[10] = GOCC_TRANS_GOLGI_NETWORK_MEMBRANE, CAP.v.Veh
[11] = GOCC_UBIQUITIN_LIGASE_COMPLEX, CAP.v.Veh
[12] = GOCC_VOLTAGE_GATED_CALCIUM_CHANNEL_COMPLEX, CAP.v.Veh

CNC(=O)c1ccc(-c2cnc3ncc(Cc4ccc5ncccc5c4)n3n2)cc1F [Capmatinib]
NES (GOCC_STEREOCILIUM_BUNDLE, CAP.v.Veh): -0.9456 | ES [1]: 0.2712 | NES [1]: 0.852 | ES [2]: -0.2472 | NES [2]: -0.7125 | ES [3]: -0.1946 | NES [3]: -0.9401 | ES [4]: -0.3731 | NES [4]: -1.04 | ES (GOCC_SYNAPTIC_CLEFT, CAP.v.Veh): 0.3229 | NES (GOCC_SYNAPTIC_CLEFT, CAP.v.Veh): 1.071 | ES [5]: -0.3122 | NES [5]: -0.938 | ES (GOCC_TIGHT_JUNCTION, CAP.v.Veh): -0.2637 | NES (GOCC_TIGHT_JUNCTION, CAP.v.Veh): -1.098 | ES [6]: -0.4591 | NES [6]: -1.376 | ES [7]: 0.1838 | NES [7]: 1.0908 | ES [8]: 0.1731 | NES [8]: 1.016 | ES [9]: 0.1992 | NES [9]: 1.108 | ES [10]: 0.1787 | NES [10]: 0.8673 | ES (GOCC_U5_SNRNP, CAP.v.Veh): -0.3461 | NES (GOCC_U5_SNRNP, CAP.v.Veh): -0.9825 | ES [11]: -0.249 | NES [11]: -1.137 | ES (GOCC_VESICLE_COAT, CAP.v.Veh): -0.2433 | NES (GOCC_VESICLE_COAT, CAP.v.Veh): -0.8906 | ES [12]: 0.2287 | NES [12]: 0.9281 | ES (GOMF_3_5_EXONUCLEASE_ACTIVITY, CAP v Veh): -0.5851 | NES (GOMF_3_5_EXONUCLEASE_ACTIVITY, CAP v Veh, padj 3.79034e-5): -2.154 | ES (GOMF_ACETYLTRANSFERASE_ACTIVITY, CAP v Veh): -0.3683 | NES (GOMF_ACETYLTRANSFERASE_ACTIVITY, CAP v Veh, padj 0.0896504): -1.4731 | ES (GOMF_ANTIGEN_BINDING, CAP v Veh): 0.4175 | NES (GOMF_ANTIGEN_BINDING, CAP v Veh, padj 9.7126e-5): 2.045 | ES (GOMF_ATPASE_ACTIVITY, CAP v Veh): -0.4489 | NES (GOMF_ATPASE_ACTIVITY, CAP v Veh, padj 4.05909e-16): -2.122 | ES (GOMF_ATPASE_ACTIVITY_COUPLED_TO_TRANSMEMBRANE_MOVEMENT_OF_IONS_ROTATIONAL_MECHANISM, CAP v Veh): 0.6568 | ES (GOMF_BASAL_TRANSCRIPTION_MACHINERY_BINDING, CAP v Veh): -0.5295 | NES (GOMF_BASAL_TRANSCRIPTION_MACHINERY_BINDING, CAP v Veh, padj 0.000818404): -1.974 | ES (GOMF_CADHERIN_BINDING, CAP v Veh): -0.3418 | ES (GOMF_CATALYTIC_ACTIVITY_ACTING_ON_A_RRNA, CAP v Veh): -0.6876 | NES (GOMF_CATALYTIC_ACTIVITY_ACTING_ON_A_RRNA, CAP v Veh, padj 0.000999398): -2.031 | ES (GOMF_CATALYTIC_ACTIVITY_ACTING_ON_RNA, CAP v Veh): -0.5707 | NES (GOMF_CATALYTIC_ACTIVITY_ACTING_ON_RNA, CAP v Veh, padj 6.64586e-32): -2.666 | ES (GOMF_CELL_ADHESION_MOLECULE_BINDING, CAP v Veh): -0.2627 | NES (GOMF_CELL_ADHESION_MOLECULE_BINDING, CAP v Veh, padj 0.0952199): -1.252 | ES (GOMF_CHROMATIN_BINDING, CAP v Veh): -0.4456 | ES (GOMF_CHROMATIN_DNA_BINDING, CAP v Veh): -0.4681 | NES (GOMF_CHROMATIN_DNA_BINDING, CAP v Veh, padj 0.00192115): -1.853 | ES (GOMF_CIS_REGULATORY_REGION_SEQUENCE_SPECIFIC_DNA_BINDING, CAP v Veh): -0.3195 | ES (GOMF_C_C_CHEMOKINE_BINDING, CAP v Veh): 0.614 | NES (GOMF_C_C_CHEMOKINE_BINDING, CAP v Veh, padj 0.00332373): 2.15 | ES (GOMF_DAMAGED_DNA_BINDING, CAP v Veh): -0.5323 | NES (GOMF_DAMAGED_DNA_BINDING, CAP v Veh, padj 3.79034e-5): -2.06 | ES (GOMF_DNA_BINDING_TRANSCRIPTION_FACTOR_ACTIVITY, CAP v Veh): -0.2925 | NES (GOMF_DNA_BINDING_TRANSCRIPTION_FACTOR_ACTIVITY, CAP v Veh, padj 0.000282579): -1.427 | ES (GOMF_DNA_BINDING_TRANSCRIPTION_FACTOR_BINDING, CAP v Veh): -0.331 | NES (GOMF_DNA_BINDING_TRANSCRIPTION_FACTOR_BINDING, CAP v Veh, padj 0.00121719): -1.544 | ES (GOMF_DNA_DEPENDENT_ATPASE_ACTIVITY, CAP v Veh): -0.6653 | NES (GOMF_DNA_DEPENDENT_ATPASE_ACTIVITY, CAP v Veh, padj 5.49162e-8): -2.428 | ES (GOMF_DNA_REPLICATION_ORIGIN_BINDING, CAP v Veh): -0.7429 | ES (GOMF_DNA_SECONDARY_STRUCTURE_BINDING, CAP v Veh): -0.5938 | NES (GOMF_DNA_SECONDARY_STRUCTURE_BINDING, CAP v Veh, padj 0.000576173): -2.028 | ES (GOMF_ELECTRON_TRANSFER_ACTIVITY, CAP v Veh): 0.4609 | NES (GOMF_ELECTRON_TRANSFER_ACTIVITY, CAP v Veh, padj 2.1374e-8): 2.343 | ES (GOMF_EXONUCLEASE_ACTIVITY, CAP v Veh): -0.5165 | NES (GOMF_EXONUCLEASE_ACTIVITY, CAP v Veh, padj 0.000106377): -2.037 | ES (GOMF_EXONUCLEASE_ACTIVITY_ACTIVE_WITH_EITHER_RIBO_OR_DEOXYRIBONUCLEIC_ACIDS_AND_PRODUCING_5_PHOSPHOMONOESTERS, CAP v Veh): -0.5585 | NES (GOMF_EXONUCLEASE_ACTIVITY_ACTIVE_WITH_EITHER_RIBO_OR_DEOXYRIBONUCLEIC_ACIDS_AND_PRODUCING_5_PHOSPHOMONOESTERS, CAP v Veh, padj 7.88894e-5): -2.0933 | ES (GOMF_EXORIBONUCLEASE_ACTIVITY, CAP v Veh): -0.5822 | NES (GOMF_EXORIBONUCLEASE_ACTIVITY, CAP v Veh, padj 0.000606605): -2.022 | ES (GOMF_GENERAL_TRANSCRIPTION_INITIATION_FACTOR_BINDING, CAP v Veh): -0.4328 | NES (GOMF_GENERAL_TRANSCRIPTION_INITIATION_FACTOR_BINDING, CAP v Veh, padj 0.0916898): -1.54 | ES (GOMF_GLUTATHIONE_TRANSFERASE_ACTIVITY, CAP v Veh): 0.6773 | NES (GOMF_GLUTATHIONE_TRANSFERASE_ACTIVITY, CAP v Veh, padj 0.000294466): 2.3366
